The list shows a part of the results. Further columns of the screen follow, without active or inactive calls. Compounds called inactive in the main read-out are mostly missing here. Words in brackets tell the shape of the fitted curve; partial curves, single points and poor fits give uncertain potencies.
Experiment: qHTS Assay to Find Inhibitors of Chronic Active B-Cell Receptor Signaling
Settings: ABC-DLBCL IkBa-CBG/CBR reporter, luminescence ratio (green luciferase fused to IkBa over red control in TMD8 lymphoma cells), 4 h
Procedure, shortened: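 Doxycycline induced both beetle luciferases in TMD8 lymphoma cells; IKK-driven degradation limits the IkappaBalpha-fused green signal, while red luminescence normalises for cell number and nonspecific effects. Compounds tested up to 46 uM, 4 hrs.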

[1] = measured here: CBR red luminescence, cell number
[2] = measured here: IkBa-CBG green luminescence

Row | Compound | AC50 [1] | AC50 [2]
1 | CC(=O)c1cccc(NC(=O)c2cc(=O)[nH]c3ccccc23)c1 | 6.31 µM [rising, single point] | 
2 | CCOC(=O)C(=Cc1ccc(-n2cncn2)cc1)C(=O)OCC | 10 µM [falling, partial curve, poor fit] | 
3 | O=[N+]([O-])c1ccc2nc(SCc3cn4cccnc4n3)[nH]c2c1 | 5.62 µM [rising, partial curve, poor fit] | 
4 | CCOC(=O)c1sc(NC(=O)/C=C/c2c(F)cccc2Cl)nc1C | 0.0651 µM [falling, full curve] | 
5 | COc1ccc2nc(NC(=O)C3CSC4(C)CCC(=O)N34)sc2c1 (stereo not drawn) | 13 µM [falling, partial curve, poor fit] | 
6 | O=C(CNC(=O)c1sc2ccccc2c1Cl)NCc1cccnc1 | 5.01 µM [falling, partial curve] | 
7 | CCCCN(C)CCNC(=O)c1cc2c(-c3cccc(OC)c3)nn(C)c2s1 | 35.5 µM [falling, single point] | 
8 | O=C(CCNc1cccc(C(F)(F)F)c1)c1ccco1 | 29.1 µM [falling, single point] | 
9 | COC(=O)c1sc2ccccc2c1NC(=O)c1ccc(S(=O)(=O)N2CC(C)CC(C)C2)cc1 (stereo not drawn) | 29.1 µM [rising, single point] | 
10 | OCCN(/C=N/c1nc(-c2ccc(Br)cc2)cs1)CCO | 1.64 µM [rising, full curve, poor fit] | 
11 | O=C(NNC(=O)c1cnccn1)c1ccc(Cl)cc1 | 12.6 µM [falling, partial curve] | 
12 | CCOc1ccc(C(=O)Nc2ccccc2C(=O)O)cc1 | 1.78 µM [falling, full curve] | 
13 | CCCCC[C@H](O)/C=C/[C@@H]1[C@@H](CCCCCCC(=O)O)[C@@H](O)C[C@H]1O | 9.2 µM [rising, partial curve] | 2.82 µM [falling, full curve]
14 | NNC(=O)c1cccc(COc2ccc3c(c2)CCC3)c1 | 16.4 µM [falling, partial curve] | 
15 | CCCCN(CC)CCNc1c(NC2CCN(C(=O)OCC)CC2)c(=O)c1=O | 0.82 µM [falling, full curve, poor fit] | 
16 | Cc1nnc2sc(SCC(=O)Nc3nccs3)nn2c1=O | 5.8 µM [falling, partial curve, poor fit] | 
17 | COc1cc(C(=S)N2CCCC2)cc(Cl)c1OCC(=O)Nc1ccc(C)cc1C | 0.146 µM [falling, single point] | 
18 | CC(=O)C(C(C)=O)c1c(Cl)c(O)c(O)c2c(C(=O)c3ccccc3)coc12 | 35.5 µM [falling, partial curve, poor fit] | 
19 | COc1ccccc1NC(=O)COC(=O)c1c[nH]c2ccccc12 | 0.326 µM [falling, partial curve, poor fit] | 
20 | O=C(CCC(=O)OCc1ccc(C(=O)Oc2ccccc2)cc1)Nc1cccc2ccccc12 | 35.5 µM [rising, partial curve, poor fit] | 
21 | O=C(Nc1ccc(N2C(=O)C3CCCCC3C2=O)cc1Cl)c1cccs1 (stereo not drawn) | 12.6 µM [falling, partial curve, poor fit] | 

Row | Compound | AC50 [1] | AC50 [2]
22 | COC(=O)c1ccc2c(=O)n(CCCN3CCCC3=O)c(=S)[nH]c2c1 | 6.51 µM [falling, full curve, poor fit] | 
23 | CC(=O)c1ccc(N2CCCC2)c(F)c1 | 16.4 µM [rising, single point] | 
24 | CS(=O)(=O)N1CCC(C(=O)NCCC2=CCCCC2)CC1 | 0.326 µM [rising, full curve, poor fit] | 
25 | Cc1cc(C(=O)N/N=C/c2ccccc2[N+](=O)[O-])c(C)o1 | 22.4 µM [falling, partial curve, poor fit] | 
26 | COC(=O)c1ccc(C2c3c(oc4cc(C)c(C)cc4c3=O)C(=O)N2CCCN(C)C)cc1 (stereo not drawn) | 7.08 µM [falling, partial curve, poor fit] | 
27 | CC(C)CNC(=O)c1cc(-c2ccc3c(c2)OCO3)on1 | 4.47 µM [falling, full curve] | 
28 | Cc1[nH]c(C)c(S(=O)(=O)N2CCCCC2C)c1C(=O)N1CCCC1 (stereo not drawn) | 20 µM [rising, partial curve, poor fit] | 
29 | Cn1c(SCC(=O)Nc2cccnc2Cl)nc2ccccc21 | 25.9 µM [rising, single point] | 20.6 µM [falling, single point]
30 | Cc1cc(C)cc(NC(=O)C2CCN(C(=O)[C@@H]3Cc4ccccc4CN3)CC2)c1 | 10 µM [falling, partial curve] | 
31 | COc1ccc2c(c1OC)C(=O)OC2Nc1nc(-c2ccc(-c3ccccc3)cc2)cs1 (stereo not drawn) | 20.6 µM [falling, partial curve] | 
32 | CCOC(=O)C(CC)/C(C)=N\NC(=O)c1ccccc1O (stereo not drawn) | 2.06 µM [falling, full curve] | 
33 | O=S(=O)(Nc1ccccc1N1CCOCC1)c1cccs1 | 20.6 µM [rising, single point] | 
34 | COc1ccc(/C=N/NC(=O)C2C3CCCCC32)cc1OC (stereo not drawn) | 6.31 µM [rising, single point] | 
35 | CSc1nsc(SCC(=O)Nc2nc3ccc(C)cc3s2)n1 | 0.326 µM [rising, full curve, poor fit] | 
36 | Cn1nc(-c2ccc(Cl)cc2)c2cc(C(=O)NCCN3CCOCC3)sc21 | 29.1 µM [falling, single point] | 
37 | Cc1occc1C(=O)NNC(=O)c1ccccc1C(=O)O | 2 µM [falling, full curve] | 
38 | O=C(Nc1ccc(Br)cn1)c1cccc(C(=O)Nc2ccc(Br)cn2)c1 | 14.1 µM [falling, single point] | 
39 | O=C(NC(=S)Nc1nc(-c2cccc3ccccc23)cs1)c1cc2ccccc2o1 | 23.1 µM [rising, partial curve, poor fit] | 
40 | Cc1cc2cc(C=C(C#N)C#N)c(Cl)nc2cc1C | 13 µM [falling, partial curve, poor fit] | 
41 | CCCCNC(=O)N(O)C1N(/N=C/c2cccs2)C(=S)SC1(C)C (stereo not drawn) | 6.31 µM [rising, full curve] | 

Sorted by length of the SMILES (falling): some entries from above
Row | Compound | AC50 [1] | AC50 [2]
21 | O=C(Nc1ccc(N2C(=O)C3CCCCC3C2=O)cc1Cl)c1cccs1 (stereo not drawn) | 12.6 µM [falling, partial curve, poor fit] | 
1 | CC(=O)c1cccc(NC(=O)c2cc(=O)[nH]c3ccccc23)c1 | 6.31 µM [rising, single point] | 
2 | CCOC(=O)C(=Cc1ccc(-n2cncn2)cc1)C(=O)OCC | 10 µM [falling, partial curve, poor fit] | 
